The target in this assay is Xenopus laevis DYRK1B (xDYRK1B), untagged (Xenopus laevis). Briefly: co-IP; HeLa cells co-expressing FLAG-hDCAF7 and untagged human or Xenopus DYRK1B; DYRK1B immunoprecipitated; DCAF7 detected by Western blot. On the technique in general: Immunoblotting shows a protein as a band on a membrane.

Results on one molecule are retold here after article PMC4910162.

These are yes or no findings as the source states them, for the method shown. In cells and extracts the contact can be indirect. Binding calls can cover weak binding; strength is not graded here. Where a sequence is shown, tags or fusion partners need not be part of it.

B1: FLAG-hDCAF7 (protein, UniProt P61962 1-342)
chain: MSLHGKRKEIYKYEAPWTVYAMNWSVRPDKRFRLALGSFVEEYNNKVQLVGLDEESSEFICRNTFDHPYPTTKLMWIPDTKGVYPDLLATSGDYLRVWRVGETETRLECLLNNNKNSDFCAPLTSFDWNEVDPYLLGTSSIDTTCTIWGLETGQVLGRVNLVSGHVKTQLIAHDKEVYDIAFSRAGGGRDMFASVGADGSVRMFDLRHLEHSTIIYEDPQHHPLLRLCWNKQDPNYLATMAMDGMEVVILDVRVPCTPVARLNNHRACVNGIAWAPHSSCHICTAADDHQALIWDIQQMPRAIEDPILAYTAEGEINNVQWASTQPDWIAICYNNCLEILRV
With B1, the binding entry was “binds”.
